Consider six compounds from patent US4299821A, “Tripeptides acting on the central nervous system and a process for the preparation thereof” (Richter Gedeon Vegyeszeti Gyar Rt., priority 1979, dated 1981).

Where a SMILES comes first, the peptide text is derived from it. [ ]: non-standard residue; d: D form. pGlu = O=C1CC[C@@H](C(=O)O)N1; Nle = CCCC[C@H](N)C(=O)O; Nva = CCC[C@H](N)C(=O)O; Abu = CC[C@H](N)C(=O)O

In the data set the test system is Haloperidol-induced catalepsy. Nature of the data set: Inhibition of Haloperidol-induced catalepsy on rats. Type of data set: in vivo, male Wistar rats. Particulars: time after i.v. treatment that the ED50 belongs to (checked at 15, 30, 60, 90, 120 min). Here is the method: (1) Inhibition of Haloperidol-induced catalepsy on rats (see J. Delay and P. Deniker: Compt. Rend. Congr. Med. Alenistes Neurologistes, 19, 497, Luxembourg, 1952)
The tests were performed on male Wistar rats weighing 160 to 180 g.
40 mg/kg of 4-(p-chlorophenyl)-1-(3-/p-fluorobenzoyl/propyl)-piperidin-4-ol(Haloperidol) were administered subcutaneously into the animals, and 120 minutes after this treatment the animals were checked for the appearance of catalepsy. The rats were divided into groups of 10 animals each, and treated intravenously with TRH or the new TRH analogues. The animals belonging to the control group received physiological saline. The catalepsy-suspending effects of the individual compounds were determined 15, 30, 60, 90 and 120 minutes after the treatment. The animals that had not changed their position for 30 seconds after placing their fore-paw onto a 7 cm high column were regarded as cataleptic.
On to `CC[C@H](NC(=O)[C@@H]1CCC(=O)N1)C(=O)N1CCC[C@H]1C(N)=O` [Abu Pro H, L-Pyroglutamyl-L-α-aminobutyl-L-prolinamide] ([pGlu]-[Abu]-Pro-NH2), for which the “Inhibition of Haloperidol catalepsy, time” value is 15 min.
With `NC(=O)[C@@H]1CCCCN1C(=O)[C@H](Cc1c[nH]cn1)NC(=O)[C@@H]1CCC(=O)N1` [His HPro H, L-Pyroglutamyl-L-histidyl-L-homoprolinamide] the figure was 120 min.
Turning to `CCNC(=O)[C@@H]1CCCN1C(=O)[C@H](CC(C)C)NC(=O)[C@@H]1CCC(=O)N1` [Leu Pro Et, L-Pyroglutamyl-L-leucyl-L-proline ethylamide] ([pGlu]-Leu-Pro-NHEt), the “Inhibition of Haloperidol catalepsy, time” value was 30 min.
With `CCCC[C@H](NC(=O)[C@@H]1CCC(=O)N1)C(=O)N1CCC[C@H]1C(N)=O` [Nleu Pro H, L-Pyroglutamyl-L-norleucyl-L-prolinamide] ([pGlu]-[Nle]-Pro-NH2) the figure was 120 min; with `CCC[C@H](NC(=O)[C@@H]1CCC(=O)N1)C(=O)N1CCC[C@H]1C(N)=O` [Nva Pro H, L-Pyroglutamyl-L-norvalyl-L-prolinamide] ([pGlu]-[Nva]-Pro-NH2), 120 min; with `NC(=O)[C@@H]1CCCN1C(=O)[C@H](Cc1c[nH]cn1)NC(=O)[C@@H]1CCC(=O)N1` [TRH, L-pyroglutamyl-L-histidyl-L-prolinamide, reference compound], 15 min.
